Measurements reported in US20240075064A1, “COMPOSITIONS AND METHODS FOR EXPANSION OF T CELLS AND TUMOR INFILTRATING LYMPHOCYTES” (OBSIDIAN THERAPEUTICS, INC., priority 2021, published 2024).
No constants are given. Whether binding was seen depends on the method and setting. Some results given as binding are weak or reduced against the parent protein; the word gives no strength.

Sequences of proteins named here, by UniProt entry; tags and fusion partners are left off. Residues count along the entry.
UniProt Q13261, residues 31-205: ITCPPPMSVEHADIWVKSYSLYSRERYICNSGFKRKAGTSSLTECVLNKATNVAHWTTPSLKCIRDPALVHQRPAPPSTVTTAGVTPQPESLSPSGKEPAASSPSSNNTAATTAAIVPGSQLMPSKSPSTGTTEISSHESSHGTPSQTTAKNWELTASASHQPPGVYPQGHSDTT

Target: constitutive mbIL15 (OT-IL15-292) on transduced TILs (human)
Test: flow cytometry; biotinylated IL15RaFc plus streptavidin-BV421 on transduced TILs, co-stained with anti-IL15-DyL650

biotinylated IL15RaFc (ACROBiosystems) (from UniProt Q13261 31-205) (Fc fusion)
binding: binds
